# Results of single-concentration screens

Each number is a percent effect as filed. The controls that fix the scale are not given in the record; negative values are as filed. This is an unselected part of the compounds tested.

A: 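Whole-parasite assay of Trypanosoma brucei over 72 hours; the read-out is not stated. Compounds at 30 µM. The record gives no direction; compounds that gave an IC50 in retests scored well above the rest, so higher reads as stronger inhibition. Values scatter widely below zero; nearly all retest evidence comes from the higher of the two concentrations used. Of about 64,000 compounds tested this way, about 940 (1.5%) reached 50% or more in at least one test.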
B: 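Assay of Toxoplasma gondii numbers, read through their beta-galactosidase reporter with a colour substrate. Tested at 10 µM. Higher reads as fewer parasites (inferred from which compounds were picked for retests). About 67,000 compounds were tested under these conditions; 0.38% (about 260) showed 50% or more at least once.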

- [H][C@]12CCN(c3ccc(C)nn3)C[C@@]1([H])CN(Cc1c[nH]cn1)C2 | A: -10.22%; B: 1.652%
- O=C(O)C(F)(F)F.O=C(O)C(F)(F)F.[H][C@@]12COC[C@@H](CC(=O)NCc3cccnc3)[C@]1([H])CN(C1CCCC1)C2 | A: 5.505%; B: -18.71%
- CN(C)S(=O)(=O)N1CCC2(COCc3cnc(-c4cccnc4)nc32)C1 (stereo unspecified) | A: -42.74%; B: -42.6%
- Cc1ccc(NC2CCCN(Cc3ccc(Cl)cc3)C2)nn1 (stereo unspecified) | A: -11.19%; B: -9.165%
- Cc1noc(C)c1S(=O)(=O)N1CCC(n2cccn2)CC1 | A: -9.363%; B: -2.41%
- Cc1cc(CN(C)C(=O)CC(C)C)no1 | A: -35.18%; B: 3.213%
- CC(Nc1cccc(CN2CCOC2=O)c1)C(=O)N1CCNC1=O (stereo unspecified) | A: -7.584%; B: -1.729%
- c1ccc(OCCN2CCCC(c3noc(C4CC4)n3)C2)cc1 (stereo unspecified) | A: -21.17%; B: -1.211%
- CCCSCC(=O)NCc1cccc(CN(C)CC)c1 | A: 0.7754%; B: 0.4244%
- O=C(CC1COCCN1S(=O)(=O)c1ccccc1)NCc1ccccn1 (stereo unspecified) | A: -9.645%; B: -5.23%
- Cn1cccc1C(=O)N1CCCCC1c1ccn2ccnc2n1 (stereo unspecified) | A: 2.833%; B: 14.29%
- Cn1cc(C[C@H]2[C@H](O)CCN2CC2CCOCC2)cn1.O=C(O)C(F)(F)F | A: -35%; B: 4.64%
- COc1cc2nc3n(c(=O)c2cc1OC)CCN(C(C)=O)CC3 | A: 12.33%; B: -0.06406%
- COc1cccc(C(=O)Oc2cc(=O)n3cccc(C)c3n2)c1 | A: -30.67%; B: 14.33%
- CC(C)c1nn(C)cc1CNC1CCOc2ccccc21.Cl (stereo unspecified) | A: -20.61%; B: 13.75%
- CN(Cc1ccsc1)C(=O)CN1CCCC1Cn1cccn1 (stereo unspecified) | A: 9.942%; B: -3.012%
- CC(NC(=O)c1ccoc1)C(=O)N(C)Cc1cccc(C(F)(F)F)c1 (stereo unspecified) | A: -91.11%; B: 5.351%
- c1csc(N2CCN(Cc3nnnn3C3CC3)CC2)n1 | A: -63.06%; B: -17.56%
- CCC(C)NC(=O)Cn1c(Nc2cc(C)cc(C)c2)nc(C)cc1=O (stereo unspecified) | A: -43.03%; B: 14.88%
- CC(C)N(CC(N)=O)Cc1c(Cl)ccc2cccnc12 | A: -18.12%; B: -1.018%
- Cc1nn(CC(=O)N2CCCN(c3cccnn3)CC2)c(C)c1Cl | A: 22.55%; B: 4.714%
- Cc1cnc(C)c(N2CCN(CC3CCCO3)CC2)n1 (stereo unspecified) | A: -38.05%
- CSc1ccc(OCCN2CCNC(=O)C2C)cc1 (stereo unspecified) | A: -43.58%; B: -9.522%
- Cn1cnc2c1C(COCc1ccccc1)N(Cc1ccncc1)CC2.O=C(O)C(F)(F)F.O=C(O)C(F)(F)F.O=C(O)C(F)(F)F (stereo unspecified) | A: 13.46%; B: 4.274%
- CCc1nc(C)sc1C(=O)N1CCN(c2ncccc2C)CC1 | A: -0.2684%; B: -5.296%
- COc1cccc(OCC2CCCN(C(=O)c3cnc(C)nc3O)C2)c1 (stereo unspecified) | A: 12.43%; B: -4.039%
- CCC(C(=O)NC(C)(C)C)n1cccc(OC)c1=O (stereo unspecified) | A: -32.32%; B: 1.467%
- [H][C@]12CC[C@@]3(N=C(CC)NC3=O)[C@@]1([H])CN(C(=O)NCc1ccccc1)C2 | A: 19.61%; B: 4.6%
- [H][C@@]12CCCO[C@]1([H])[C@@H](N(C)Cc1cncnc1)CN2C(=O)c1ccc[nH]1 | A: -61.64%; B: -42.68%
- CC(=O)N1CCCC(C(=O)N2CCN(c3cnn(C)c(=O)c3)CC2)C1 (stereo unspecified) | A: -15.22%; B: 12.63%
- Cc1cc(C)n(C2CCCN(C(=O)c3c[nH]c(=O)c(Cl)c3)C2)n1 (stereo unspecified) | A: 2.12%; B: 0.6948%
- Cc1cccc(-n2ncc3c2CCCC3NCc2cccc(O)c2)c1C (stereo unspecified) | A: 12.43%; B: -11.3%
- O=C(O)C(F)(F)F.O=C(O)C(F)(F)F.[H][C@@]12CCCO[C@]1([H])[C@H](Oc1ncccc1F)CN2Cc1ccccn1 | A: -10.93%; B: 1.63%
- O=C1OCCN1Cc1cccc(F)c1C(F)(F)F | A: -4.667%; B: -2.213%
- C=C(C)CN(CC)C(=O)CN(C)C1CCc2ccccc21 (stereo unspecified) | A: 11.55%; B: -4.229%
- Cc1cccc(COc2ccc(C(C)NS(N)(=O)=O)cc2)c1 (stereo unspecified) | A: 4.364%; B: 16.13%
- CC(C)(C)c1cc(CNC(=O)c2cc(COc3ccccc3)[nH]n2)[nH]n1 | A: -93.61%; B: 17.52%

From ChEMBL document CHEMBL3988442, “University of Dundee, Small-Polar-MMV Screening Library” (2021).